Data source: PubChem BioAssay AID504764 (Drosophila RNAi Screening Center, 2011)

Purpose: 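Genome-wide screen for regulators of Notch-driven gene expression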 (primary screen)
Cells: Drosophila Kc167 cells
Reagents: long dsRNA against Drosophila genes
Duration: about 5 days (4 days dsRNA, then 24 h after transfection)
Treatment: transfection of constitutively active membrane-tethered Notch lacking the extracellular domain, read 24 h later
Detection: 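Light from a Notch-responsive E(spl)m3 luciferase reporter under active Notch, with control-promoter and no-Notch reporter wells to normalise; raw counts from paired wells a and b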
Reading the numbers: induced reporter light, run 1, well a and induced reporter light, run 1, well b: higher = more light from the Notch target reporter with active Notch; control promoter light, run 1, well a and control promoter light, run 1, well b: higher = more light from the viral control promoter (cell number, transfection, viability); uninduced reporter light, run 1, well a: higher = more light from the Notch target reporter without active Notch
Call rule: 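Wells with low control signal or poorly matching duplicates excluded; duplicates averaged; per source plate, z beyond ±2 for induced/control log2 ratio or beyond ±1.8 for induced/uninduced marks a hit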
Meaning of the calls: active = modifier hit (raised or lowered Notch signal); inactive = not a hit
In all, the deposit lists about 22,000 reagents; below is an unselected part of those with a known target gene and a result. Over the whole deposit, 403 (1.9%) were called active. 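Unnormalised raw counts per well; ratio z-scores behind the hit calls and whether each hit raises or lowers signal are not deposited.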 Not stated in the record: the amount of reagent.

Nepl8 [DRSC02759] — induced reporter light, run 1, well a = 1.48e5; induced reporter light, run 1, well b = 1.60e5; control promoter light, run 1, well a = 1.37e5; control promoter light, run 1, well b = 1.50e5; uninduced reporter light, run 1, well a = 12815; activity call = inactive
CG1602 [DRSC06601] — induced reporter light, run 1, well a = 2.11e5; induced reporter light, run 1, well b = 1.81e5; control promoter light, run 1, well a = 2.31e5; control promoter light, run 1, well b = 1.99e5; uninduced reporter light, run 1, well a = 16610; activity call = inactive
CG10920 [DRSC17765] — induced reporter light, run 1, well a = 2.05e5; induced reporter light, run 1, well b = 1.81e5; control promoter light, run 1, well a = 2.79e5; control promoter light, run 1, well b = 3.42e5; uninduced reporter light, run 1, well a = 13320; activity call = inactive
CG4660 [DRSC18378] — induced reporter light, run 1, well a = 1.71e5; induced reporter light, run 1, well b = 1.70e5; control promoter light, run 1, well a = 2.82e5; control promoter light, run 1, well b = 2.57e5; uninduced reporter light, run 1, well a = 14150; activity call = inactive
snf [DRSC18835] — induced reporter light, run 1, well a = 1.69e5; induced reporter light, run 1, well b = 1.45e5; control promoter light, run 1, well a = 1.54e5; control promoter light, run 1, well b = 1.60e5; uninduced reporter light, run 1, well a = 11965; activity call = inactive
Irc [DRSC16454] — induced reporter light, run 1, well a = 2.57e5; induced reporter light, run 1, well b = 1.95e5; control promoter light, run 1, well a = 2.49e5; control promoter light, run 1, well b = 2.98e5; uninduced reporter light, run 1, well a = 21565; activity call = inactive
Svip [DRSC08982] — induced reporter light, run 1, well a = 1.53e5; induced reporter light, run 1, well b = 1.77e5; control promoter light, run 1, well a = 1.63e5; control promoter light, run 1, well b = 1.57e5; uninduced reporter light, run 1, well a = 12805; activity call = inactive
Mcm3 [DRSC18679] — induced reporter light, run 1, well a = 1.98e5; induced reporter light, run 1, well b = 1.53e5; control promoter light, run 1, well a = 2.30e5; control promoter light, run 1, well b = 1.95e5; uninduced reporter light, run 1, well a = 14900; activity call = inactive
CG12446 [DRSC20618] — induced reporter light, run 1, well a = 77425; induced reporter light, run 1, well b = 89605; control promoter light, run 1, well a = 75625; control promoter light, run 1, well b = 95690; uninduced reporter light, run 1, well a = 9892; activity call = inactive
CG32533 [DRSC19443] — induced reporter light, run 1, well a = 1.23e5; induced reporter light, run 1, well b = 1.12e5; control promoter light, run 1, well a = 92125; control promoter light, run 1, well b = 85650; uninduced reporter light, run 1, well a = 8790; activity call = inactive
CG32533 [DRSC19553] — induced reporter light, run 1, well a = 76875; induced reporter light, run 1, well b = 88275; control promoter light, run 1, well a = 95770; control promoter light, run 1, well b = 1.27e5; uninduced reporter light, run 1, well a = 8875; activity call = inactive
mRpS25 [DRSC19598] — induced reporter light, run 1, well a = 1.08e5; induced reporter light, run 1, well b = 82935; control promoter light, run 1, well a = 1.21e5; control promoter light, run 1, well b = 97305; uninduced reporter light, run 1, well a = 11895; activity call = inactive
